Assay results as given in PubChem BioAssay (NCATS).
This list was built around the results that the source calls inconclusive (neither active nor inactive); the mix of calls is not that of the screen. For some assays here: A potency beside an inconclusive call is a rough fit, not a confirmed value. Activity calls are given as the source filed them. Unless noted, the call rests on the fitted dose curve; in most records, active means well fitted curve in the direction sought with a large enough effect; inconclusive means small, poorly fitted or top-dose-only effect, or another doubt; inactive means no such curve, though single readings can be large; an effect the other way counts as inactive or inconclusive.

Sequences of proteins named here, by UniProt entry; tags and fusion partners are left off. A change or cut given only in a name is not applied to a line headed by its entry.
UniProt Q03181: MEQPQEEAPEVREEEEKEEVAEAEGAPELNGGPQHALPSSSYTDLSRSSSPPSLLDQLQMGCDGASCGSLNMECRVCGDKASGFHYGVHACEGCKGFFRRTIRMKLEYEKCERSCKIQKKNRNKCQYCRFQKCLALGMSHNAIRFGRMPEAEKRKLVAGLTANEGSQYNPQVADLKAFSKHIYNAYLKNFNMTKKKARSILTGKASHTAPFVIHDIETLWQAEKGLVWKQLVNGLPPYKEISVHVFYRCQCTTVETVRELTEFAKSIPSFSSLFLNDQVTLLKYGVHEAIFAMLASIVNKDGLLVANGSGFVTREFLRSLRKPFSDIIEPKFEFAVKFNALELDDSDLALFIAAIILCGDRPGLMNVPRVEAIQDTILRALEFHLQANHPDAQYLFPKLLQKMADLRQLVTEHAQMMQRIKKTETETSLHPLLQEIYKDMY
UniProt P10828: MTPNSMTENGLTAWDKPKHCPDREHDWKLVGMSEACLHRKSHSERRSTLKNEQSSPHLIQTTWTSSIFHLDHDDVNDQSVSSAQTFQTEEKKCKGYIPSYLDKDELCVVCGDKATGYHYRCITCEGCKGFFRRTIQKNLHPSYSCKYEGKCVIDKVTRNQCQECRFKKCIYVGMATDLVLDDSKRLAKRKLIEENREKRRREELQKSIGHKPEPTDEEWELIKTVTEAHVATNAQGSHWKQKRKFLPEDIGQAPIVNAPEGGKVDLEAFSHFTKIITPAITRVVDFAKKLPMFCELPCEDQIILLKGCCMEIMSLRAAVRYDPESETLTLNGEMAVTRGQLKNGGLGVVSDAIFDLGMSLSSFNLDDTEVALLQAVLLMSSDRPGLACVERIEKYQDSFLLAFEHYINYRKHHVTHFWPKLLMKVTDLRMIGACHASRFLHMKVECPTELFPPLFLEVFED
UniProt P19793: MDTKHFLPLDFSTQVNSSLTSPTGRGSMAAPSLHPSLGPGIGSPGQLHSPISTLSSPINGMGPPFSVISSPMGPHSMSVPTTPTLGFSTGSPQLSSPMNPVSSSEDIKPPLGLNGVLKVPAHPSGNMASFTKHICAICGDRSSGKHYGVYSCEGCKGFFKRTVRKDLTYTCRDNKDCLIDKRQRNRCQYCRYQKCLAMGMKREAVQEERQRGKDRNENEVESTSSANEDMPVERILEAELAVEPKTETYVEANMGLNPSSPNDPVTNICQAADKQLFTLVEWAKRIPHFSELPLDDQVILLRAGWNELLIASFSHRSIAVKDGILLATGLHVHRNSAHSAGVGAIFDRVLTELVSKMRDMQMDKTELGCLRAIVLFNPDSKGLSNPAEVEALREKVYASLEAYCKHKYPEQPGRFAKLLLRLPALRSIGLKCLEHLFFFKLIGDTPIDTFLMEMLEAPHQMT
UniProt P01375, whole entry, looked up: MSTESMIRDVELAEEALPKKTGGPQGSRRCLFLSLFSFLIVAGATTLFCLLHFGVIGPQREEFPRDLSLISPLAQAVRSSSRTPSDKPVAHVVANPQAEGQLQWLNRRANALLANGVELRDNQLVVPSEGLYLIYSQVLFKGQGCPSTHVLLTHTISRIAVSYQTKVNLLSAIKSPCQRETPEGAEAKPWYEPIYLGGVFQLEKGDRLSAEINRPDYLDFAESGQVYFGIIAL

Legend:
[1] = target: Peroxisome proliferator-activated receptor delta (Homo sapiens) (UniProt Q03181); test: qHTS assay for small molecule antagonists of peroxisome proliferator-activated receptor delta signaling (AID 588535; active means well fitted inhibition curve with a large enough effect in the signal ratio, with a control signal flat, not every such curve was filed as active; inconclusive means small, poorly fitted or top-dose-only effect, or effect the other way, or a change in a side signal; inactive means no such curve, though single readings can be large or run the other way; the % refers to the signal ratio); settings: HEK293T PPARd-UAS-bla, beta-lactamase FRET ratio, 18 h; activity change, negative = inhibition: at 76.7 µM (top of the series) unless noted
Outline: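 Antagonist-mode qHTS using GeneBLAzer PPAR-delta-UAS-bla HEK293T cells; compound exposure 18 hrs at 37 C over a titration. Ratiometric CCF4 fluorescence at 460/530 nm; concentration-response points fitted to the Hill equation.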

[2] = qHTS assay for small molecule agonists of the antioxidant response element (ARE) signaling pathway (AID 651741; active means well fitted activation curve with a large enough effect in the signal ratio; inconclusive means small, poorly fitted or top-dose-only effect, or effect the other way, or a change in a side signal; the % refers to the signal ratio; further: potency means the concentration at half of the fitted maximal effect; on activation: % of control where 0% means no effect); settings: HepG2 ARE-bla reporter, beta-lactamase FRET ratio, 16 h; activation: at 96 µM (top of the series) unless noted
Outline: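 Agonist activity is measured as ARE-driven beta-lactamase expression in a stable HepG2 reporter line, using 16 h compound treatment at 37 C and a FRET substrate fluorescence readout after 2 h.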

[3] = qHTS assay for small molecule activators of the nuclear factor-kappa B (NF-kB) signaling pathway (AID 651749; active means well fitted activation curve with a large enough effect in the signal ratio; inconclusive means small, poorly fitted or top-dose-only effect, or a change in a side signal; the % refers to the signal ratio; further: % of control where 0% means no effect); settings: NF-kB-bla ME-180 cells, beta-lactamase FRET ratio, 16 h; activation: hits give high values
Outline: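 FRET-based beta-lactamase detection in ME-180 cells reports NF-kB response-element-driven transcription following overnight (16 hr) compound treatment.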

[4] = target: Peroxisome proliferator-activated receptor gamma (Homo sapiens) (UniProt P37231); test: qHTS assay for small molecule agonists of peroxisome proliferator-activated receptor gamma signaling (AID 588536; active means well fitted curve in the direction sought with a large enough effect in the signal ratio, with a control signal flat, not every such curve was filed as active; inconclusive means small, poorly fitted or top-dose-only effect, or effect the other way, or a change in a side signal; inactive means no such curve, though single readings can be large or run the other way; the % refers to the signal ratio;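 further: 0% = DMSO basal wells and 100% = rosiglitazone at 2 µM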); settings: HEK293 PPARg-UAS-bla, beta-lactamase ratio, 16 h; activation: at 76.7 µM (top of the series), percent of rosiglitazone response, DMSO as zero
Outline: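 Compound treatment: 16 h, 37 C, HEK293 GeneBLAzer cells. Detection: CCF4, 2 h RT. Values: Hill-fit EC50, efficacy as % of 2 uM rosiglitazone.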

[5] = target: Thyroid hormone receptor beta (Homo sapiens) (UniProt P10828); test: qHTS assay for small molecule antagonists of thyroid hormone receptor beta signaling (AID 588547; active means well fitted inhibition curve with a large enough effect in the signal ratio, with a control signal flat, not every such curve was filed as active; inconclusive means small, poorly fitted or top-dose-only effect, or effect the other way, or a change in a side signal; the % refers to the signal ratio;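 further: cells stimulated with 0.4 nM T3 agonist during compound exposure; on the % scale 0 is the no-effect control and ±100 the full control effect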); settings: TR-UAS-bla HEK293, beta-lactamase ratio, antagonist mode, 18 h
Outline: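 Inhibition of T3-driven (0.4nM final) beta-lactamase reporter activity was measured over 0.59 nM to 92 uM compound after 18 h at 37 C. The cells were GripTite HEK293 TR-UAS-bla in charcoal/dextran-stripped serum, with CCF4 ratio read-out and IC50 from Hill fits.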

[6] = target: Vitamin D3 receptor (Homo sapiens) (UniProt P11473); test: qHTS assay for small molecule antagonists of vitamin D receptor signaling (AID 588541; calls by dose curve; further: potency means the concentration at half of the fitted maximal effect); settings: HEK293T VDR-UAS-bla, beta-lactamase ratio, antagonist mode; activity change, negative = inhibition: at 76.7 µM (top of the series)
[7] = target: Retinoic acid receptor RXR-alpha (Homo sapiens) (UniProt P19793); test: qHTS assay for small molecule antagonists of retinoid X receptor alpha signaling (AID 588546; active means well fitted inhibition curve with a large enough effect in the signal ratio, with a control signal flat, not every such curve was filed as active; inconclusive means small, poorly fitted or top-dose-only effect, or effect the other way, or a change in a side signal; inactive means no such curve, though single readings can be large or run the other way; the % refers to the signal ratio;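 further: cells stimulated with 9-cis-retinoic acid as agonist; on the % scale 0 is the no-effect control and ±100 the full control effect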); settings: HEK293T RXRa-UAS-bla, beta-lactamase ratio, antagonist mode
Outline: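 Beta-lactamase reporter inhibition, read as CCF4 fluorescence ratio (ex 405, em 460/530 nm) after 2 h at RT. HEK293T UAS-bla cells, 2500/well, were stimulated with 9-cis-RA at 500 or 100 nM final alongside test compound for 18 h at 37 C.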

[8] = target: Peroxisome proliferator-activated receptor gamma (Homo sapiens) (UniProt P37231); test: qHTS assay for small molecule antagonists of peroxisome proliferator-activated receptor gamma signaling (AID 588537; active means well fitted inhibition curve with a large enough effect in the signal ratio, with a control signal flat, not every such curve was filed as active; inconclusive means small, poorly fitted or top-dose-only effect, or effect the other way, or a change in a side signal; the % refers to the signal ratio;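 further: reporter cells co-stimulated with 50 nM rosiglitazone agonist during compound treatment; % of control where 0% means no effect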); settings: HEK293 PPARg-UAS-bla, beta-lactamase ratio, antagonist mode; activity, negative = inhibition: at 76.8 µM (top of the series) unless noted
Outline: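 Cell-based beta-lactamase assay; GW9662 served as the antagonist control. Stimulation used rosiglitazone, final 50 nM, 16 h, 37 C.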

[9] = Cell Viability - LYMP2-026 (AID 989);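 further: cells exposed to compound for 24 h at 37 °C; on the % scale 0 is the no-effect control and ±100 the full control effect; nearly all actives have a fitted effect of over 50% in size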
Outline: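 qHTS cytotoxicity: 2500 cells/well, 5 hr 37 C, compound 24 hr 37 C, CellTiter-Glo 30 min RT, luminescence. Tetraoctylammonium bromide positive control. AC50 via standard Hill fit.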

[10] = target: Tumor necrosis factor (Homo sapiens) (UniProt P01375); test: qHTS assay to identify small molecules that stimulate Tumor Necrosis Factor-alpha (TNF-alpha) secretion (AID 651757; active means well fitted curve in the direction sought with a large enough effect in the signal ratio; inconclusive means small, poorly fitted or top-dose-only effect, or a change in a side signal; inactive means no such curve, though single readings can be large or run the other way; the % refers to the signal ratio; further: 0% is about no effect); settings: Human cells, HTRF 665/615 ratio; activation (TNF-alpha secretion): at 92.2 µM (top of the series)
Outline: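 THP-1 cells, 3000/well; compound 17 hrs, 37 C; add cryptate/XL665 anti-TNF-alpha antibody pair; 3 hr RT; TR-FRET (HTRF) read of secreted TNF-alpha. Quantitative HTS format.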

[11] = qHTS assay for small molecule antagonists of the retinoid-related orphan receptor gamma (ROR-gamma) signaling pathway - cell viability counter screen (AID 720652; active means well fitted curve in the direction sought with a large enough effect in the repeat runs; inconclusive means weak or mixed curves; inactive means no such curve, though single readings can be large; an effect the other way counts as inactive or inconclusive;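 further: potency means the concentration at half of the fitted maximal effect; compound exposure lasted 16 hr before ATP read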)
Outline: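 CHO RORE-LUC/TET-ROR line, 1,000 cells/well, 37 C 5% CO2 5 hr; cpd or DMSO + doxycycline induction, 16 hr. CellTiter-Glo, 30 min RT, luminescence = ATP content.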

[12] = MultiTox-Fluor Cytotoxicity Assay - LYMP1-002 - Dead Cells (AID 960); settings: LYMP1-002 lymphoblastoid cells, dead-cell protease fluorescence; cytotoxicity (dead cells): at 46.1 µM (top of the series); further: potency means the concentration at half of the fitted maximal effect; nearly all actives have a fitted effect of over 60% in size
Outline: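 Readout: fluorescence at 485/520 from cell-impermeant bis-AAF-R110 cleaved by proteases leaking from damaged cells. LYMP1-002 lymphoblastoid line, 16 hr compound treatment at 37 C, concentration-response in qHTS format; Hill-equation AC50 values.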

[13] = qHTS assay to identify small molecules that stimulate interleukin-8 (IL-8) secretion (AID 651758; active means well fitted activation curve with a large enough effect in the signal ratio; inconclusive means small, poorly fitted or top-dose-only effect, or effect the other way, or a change in a side signal; the % refers to the signal ratio; further: 0% is about no effect); settings: HTRF ratio (665/615); activation: at 92.2 µM (top of the series)
Outline: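 Secreted IL-8 measured homogeneously by TR-FRET (two labelled anti-IL-8 antibodies, 1-3 h at room temperature) after a 16 h, 37 C compound treatment of THP-1 cells at 2000 cells/well.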

CC(C)OC(=O)c1ccccc1C(=O)OC(C)C
activity change, negative = inhibition [1]: inconclusive: 33.7%
Potency [2]: inconclusive: 61.1 µM [activator, partial curve]
activation [3]: inactive: -2.02%

CCCCCCCCCC(=O)OC
Potency [4]: inactive
activity change % (negative = inhibition) [5]: inconclusive: -11.2%
Potency [2]: inconclusive: 61.1 µM [activator, partial curve]

CCCCCCCCCCCCCCCCCC(N)=O
activation [4]: inconclusive: 13.4%
Potency [6]: inconclusive: 50.1 µM [activator, single point]
max response [7]: inconclusive: 10.3%
activation [2]: inconclusive: 4.64%

CCCCCCCCCCCCCCCC
Potency [4]: inactive
Potency [8]: inactive
Potency [2]: inconclusive: 77 µM [activator, partial curve, poor fit]

Cc1ccc([N+](=O)[O-])c(N)c1
Potency [9]: inactive
Potency [4]: inactive
activity, negative = inhibition [8]: inconclusive: -2.61%
activity change % (negative = inhibition) [5]: inactive: -0.142%
activation (TNF-alpha secretion) [10]: inconclusive: 1.13%
Potency [11]: inconclusive: 84.1 µM [cytotoxic, partial curve, poor fit]

O=CNc1ccccc1
Potency [12]: inconclusive: 0.199 µM [cytotoxic, full curve, poor fit]
Potency [4]: inactive
Potency [8]: inactive
max response [7]: inactive: 1.7%
activity change % (negative = inhibition) [5]: inconclusive: 12.6%
Potency [2]: inconclusive: 47.3 µM [activator, partial curve]
activation [13]: inconclusive: 2.69%
